# Tested on: HLA-A*02
# Assay: Identification and relative LC-MS quantitation of HLA-A*02-presented tumor-associated peptides on tissue samples (presentation profiles, Tables 13A, 13B, 15, FIG. 1)
# Parameters: species or system human; key to Presentation score NHL / Presentation score CLL / Presentation score BRCA / Presentation score AML / Presentation score GB / Presentation score NSCLC / Presentation score GBC_CCC / Presentation score UEC / Presentation score MEL / Presentation score OSCAR / Presentation score GC / Presentation score UBC / Presentation score OC / Presentation score RCC / Presentation score CRC / Presentation score PCA / Presentation score HCC / Presentation score PC / Presentation score SCLC: specifically presented on tumors (++++); very highly over-presented on tumors compared to a panel of normal tissues (+++); highly over-presented on tumors compared to a panel of normal tissues (++); over-presented on tumors compared to a panel of normal tissues (+)
# Details: for Presentation score OSCAR: esophageal cancer, including cancer of the gastric-esophageal junction (N = 17) vs panel of normal tissues (N = 262); for Presentation score GC: gastric cancer (N = 29) vs panel of normal tissues (N = 262); for Presentation score NSCLC: non-small cell lung cancer (N = 90) vs panel of normal tissues (N = 262); for Presentation score UBC: urinary bladder cancer (N = 16) vs panel of normal tissues (N = 262); for Peptide Presentation on cancer entities: HLA-A*02-binding tumor-associated peptides; for Presentation score OC: ovarian cancer (N = 20) vs panel of normal tissues (N = 262); for Presentation score CLL: chronic lymphocytic leukemia (N = 17) vs panel of normal tissues (N = 262); for Presentation score NHL: non-Hodgkin lymphoma (N = 18) vs panel of normal tissues (N = 262); for Presentation score GB: glioblastoma (N = 41) vs panel of normal tissues (N = 262); for Presentation score AML: acute myeloid leukemia (N = 18) vs panel of normal tissues (N = 262); for Presentation score RCC: renal cell carcinoma (N = 20) vs panel of normal tissues (N = 262); for Presentation score CRC: colorectal cancer (N = 28) vs panel of normal tissues (N = 262); for Presentation score SCLC: small cell lung cancer (N = 19) vs panel of normal tissues (N = 262)
# [1] = Table 13A, cancer entities on which the peptide was found presented
# [2] = Table 13B, presentation on additional cancer entities
# [3] = FIG. 1, A*02 positive samples, only samples with presentation shown
Substance,Presentation score OSCAR (HLA-A*02 peptides),Presentation score GC (HLA-A*02 peptides),Presentation score NSCLC (HLA-A*02 peptides),Peptide Presentation on cancer entities [1],Peptide Presentation on cancer entities [2],also measured
46 (SQFPLPLAV; listed as Homo sapiens) [compound 46],++++,++++,++++,"GC, NSCLC, OSCAR, UBC","MEL, HNSCC",Presentation score UBC (HLA-A*02 peptides): ++++
48 (QVIEDSTGV; listed as Homo sapiens) [compound 48],++++,++++,++++,"GC, NSCLC, OSCAR, OC",,Presentation score OC (HLA-A*02 peptides): ++++
49 (ALNIATHVL; listed as Homo sapiens) [compound 49],,,++++,"NSCLC, CLL, UBC, NHL",CRC,Presentation score CLL (HLA-A*02 peptides): ++++; Presentation score NHL (HLA-A*02 peptides): ++++; Presentation score UBC (HLA-A*02 peptides): ++++
50 (ILFHGVFYA; listed as Homo sapiens) [compound 50],,,++++,"NSCLC, OC, UBC, BRCA",SCLC,"Presentation score BRCA (HLA-A*02 peptides, breast cancer (N = 17) vs panel of normal tissues (N = 262)): ++++; Presentation score OC (HLA-A*02 peptides): ++++; Presentation score UBC (HLA-A*02 peptides): ++++"
51 (LLFSRLCGA; listed as Homo sapiens) [compound 51],,,++++,"GB, NSCLC",UEC,Presentation score GB (HLA-A*02 peptides): ++++
52 (RLAVLFSGA; listed as Homo sapiens) [compound 52],++++,++++,++++,"GC, NSCLC, OSCAR, OC",HCC,Presentation score OC (HLA-A*02 peptides): ++++
58 (YLLPLLPAL; listed as Homo sapiens) [compound 58],,,,,,Presentation score GB (HLA-A*02 peptides): ++++
60 (ALFAPLVHL; listed as Homo sapiens) [compound 60],,,,AML,NHL,Presentation score AML (HLA-A*02 peptides): ++++
67 (TLLQRLTEV; listed as Homo sapiens) [compound 67],,,+++,"NSCLC, CLL, RCC, AML",NHL,Presentation score AML (HLA-A*02 peptides): +++; Presentation score CLL (HLA-A*02 peptides): +++; Presentation score RCC (HLA-A*02 peptides): +++
68 (SLSNRLYYL; listed as Homo sapiens) [compound 68],++++,++++,,"GC, OSCAR, CRC",,Presentation score CRC (HLA-A*02 peptides): ++++
69 (FLAVGLVDV; listed as Homo sapiens) [compound 69],,,,"AML, NHL",SCLC,Presentation score AML (HLA-A*02 peptides): ++++; Presentation score NHL (HLA-A*02 peptides): ++++
70 (LLLGDSALYL; listed as Homo sapiens) [compound 70],,,,"RCC, NHL",CRC,Presentation score NHL (HLA-A*02 peptides): ++++; Presentation score RCC (HLA-A*02 peptides): ++++
72 (FLTAINYLL; listed as Homo sapiens) [compound 72],,,,"OC, RCC","UEC, RCC, AML",Presentation score OC (HLA-A*02 peptides): ++++; Presentation score RCC (HLA-A*02 peptides): ++++
73 (YTLREVDTV; listed as Homo sapiens) [compound 73],++++,,++++,"NSCLC, OSCAR, OC",AML,Presentation score OC (HLA-A*02 peptides): ++++
74 (TLFGYSVVL; listed as Homo sapiens) [compound 74],,,,AML,,Presentation score AML (HLA-A*02 peptides): ++++
76 (AVGPVHNSV; listed as Homo sapiens) [compound 76],++++,++++,,"GC, OSCAR",NSCLC,
77 (TLIDEQDIPLV; listed as Homo sapiens) [compound 77],,,++++,"NSCLC, OC, SCLC","SCLC, NHL, HNSCC",Presentation score OC (HLA-A*02 peptides): ++++; Presentation score SCLC (HLA-A*02 peptides): ++++
78 (TVVTRLDEI; listed as Homo sapiens) [compound 78],++++,++++,,"GC, OSCAR, OC",,Presentation score OC (HLA-A*02 peptides): ++++
80 (KLYEADFVL; listed as Homo sapiens) [compound 80],,,++++,"NSCLC, AML, NHL",,Presentation score AML (HLA-A*02 peptides): ++++; Presentation score NHL (HLA-A*02 peptides): ++++
82 (FIFDEAEKL; listed as Homo sapiens) [compound 82],++++,++++,++++,"GC, NSCLC, OSCAR",,
84 (ALCPRIHEV; listed as Homo sapiens) [compound 84],,,,,,Presentation score GB (HLA-A*02 peptides): ++++
85 (VLNDILVRA; listed as Homo sapiens) [compound 85],,,,"OC, UEC",,"Presentation score OC (HLA-A*02 peptides): ++++; Presentation score UEC (HLA-A*02 peptides, uterine cancer (N = 15) vs panel of normal tissues (N = 262)): ++++"
87 (TIYKDFVYI; listed as Homo sapiens) [compound 87],++++,++++,++++,"GC, NSCLC, OSCAR",,
88 (AQADHLPQL; listed as Homo sapiens) [compound 88],++++,++++,++++,"GC, NSCLC, OSCAR",,
90 (FLQDLEQRL; listed as Homo sapiens) [compound 90],,,,"GC, NSCLC, PCA, CLL, OSCAR, OC, SCLC, UBC, UEC, BRCA, GBC_CCC, CRC, NHL",HNSCC,Presentation score SCLC (HLA-A*02 peptides): +++; Presentation score UBC (HLA-A*02 peptides): +
92 (GLLFSLRSV; listed as Homo sapiens) [compound 92],+,,,"NSCLC, HCC, PCA, CLL, OSCAR, OC, UBC, BRCA, MEL, RCC, CRC, AML, NHL","SCLC, HNSCC",number of cancer tissues where the peptide was found to be presented [3]: 14; number of cell lines where the peptide was found to be presented [3]: 2; number of normal tissues where the peptide was found to be presented [3]: 1; Presentation score RCC (HLA-A*02 peptides): +
94 (LLLPAVPVGA; listed as Homo sapiens) [compound 94],,,+,"GB, NSCLC, OC, UBC, CRC, AML",SCLC,Presentation score AML (HLA-A*02 peptides): +++; Presentation score CRC (HLA-A*02 peptides): +++; Presentation score GB (HLA-A*02 peptides): +
